Results deposited as PubChem BioAssay AID1224830 (NIAID, 2016)

Purpose: 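Genes whose knock-down alters the TNF-alpha reporter response to LPS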 (primary screen)
System: human THP-1 monocytic leukaemia cells, TNF dual-luciferase reporter clone, PMA-differentiated to macrophage-like cells
Reagents: siRNA pool against human genes, 50 nM
Duration: LPS for 4 h, given about 3 days after siRNA transfection
Treatment: bacterial LPS (TLR4 ligand), 10 ng/ml
Measured: 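Ratio of firefly to renilla light, scaled to the plate median and expressed as a robust z-score per replicate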
Scale: TNF reporter robust z-score: higher = stronger TNF reporter response to LPS
Call rule: 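a well is active when its z-score exceeds 2.8 or falls below -1.5; control wells carry no call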
In all, the deposit lists about 18,000 reagents; this is a random part of them. Over the whole deposit, about 2,900 (16%) are marked active. 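Calls are made per well; low scores hint the gene aids the LPS response, high scores that it dampens it.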 Repeated entries: four replicate wells of each siRNA pool.

PPIB (peptidylprolyl isomerase B): TNF reporter robust z-score = 2.47; Call = inactive
PPIB (peptidylprolyl isomerase B): TNF reporter robust z-score = 1.33; Call = inactive
PPIB (peptidylprolyl isomerase B): TNF reporter robust z-score = 1.78; Call = inactive
PPIB (peptidylprolyl isomerase B): TNF reporter robust z-score = 2.49; Call = inactive
SLC39A2: TNF reporter robust z-score = -1.09; Call = inactive
SLC39A2: TNF reporter robust z-score = -0.12; Call = inactive
SLC39A2: TNF reporter robust z-score = -0.79; Call = inactive
SLC39A2: TNF reporter robust z-score = 0.02; Call = inactive
ZNF137P (zinc finger protein 137, pseudogene): TNF reporter robust z-score = 0.49; Call = inactive
ZNF137P (zinc finger protein 137, pseudogene): TNF reporter robust z-score = 1.79; Call = inactive
ZNF137P (zinc finger protein 137, pseudogene): TNF reporter robust z-score = 1.12; Call = inactive
ZNF137P (zinc finger protein 137, pseudogene): TNF reporter robust z-score = 1.99; Call = inactive
F11 (coagulation factor XI): TNF reporter robust z-score = 0.93; Call = inactive
F11 (coagulation factor XI): TNF reporter robust z-score = 1.66; Call = inactive
F11 (coagulation factor XI): TNF reporter robust z-score = 1.51; Call = inactive
F11 (coagulation factor XI): TNF reporter robust z-score = 1.65; Call = inactive
FAM20B (FAM20B glycosaminoglycan xylosylkinase): TNF reporter robust z-score = 3.3; Call = active
FAM20B (FAM20B glycosaminoglycan xylosylkinase): TNF reporter robust z-score = 3.56; Call = active
FAM20B (FAM20B glycosaminoglycan xylosylkinase): TNF reporter robust z-score = 0.89; Call = inactive
FAM20B (FAM20B glycosaminoglycan xylosylkinase): TNF reporter robust z-score = 2.45; Call = inactive
ZIC1 (Zic family zinc finger 1): TNF reporter robust z-score = 0.72; Call = inactive
ZIC1 (Zic family zinc finger 1): TNF reporter robust z-score = -0.12; Call = inactive
ZIC1 (Zic family zinc finger 1): TNF reporter robust z-score = -0.53; Call = inactive
ZIC1 (Zic family zinc finger 1): TNF reporter robust z-score = -0.03; Call = inactive
GPR162 (G protein-coupled receptor 162): TNF reporter robust z-score = -0.74; Call = inactive
GPR162 (G protein-coupled receptor 162): TNF reporter robust z-score = -1; Call = inactive
GPR162 (G protein-coupled receptor 162): TNF reporter robust z-score = -0.83; Call = inactive
GPR162 (G protein-coupled receptor 162): TNF reporter robust z-score = -0.76; Call = inactive
DUSP12 (dual specificity phosphatase 12): TNF reporter robust z-score = 0.01; Call = inactive
DUSP12 (dual specificity phosphatase 12): TNF reporter robust z-score = -1.01; Call = inactive
DUSP12 (dual specificity phosphatase 12): TNF reporter robust z-score = -0.76; Call = inactive
DUSP12 (dual specificity phosphatase 12): TNF reporter robust z-score = -0.62; Call = inactive
DIS3L2 (DIS3 like 3'-5' exoribonuclease 2): TNF reporter robust z-score = 0.08; Call = inactive
DIS3L2 (DIS3 like 3'-5' exoribonuclease 2): TNF reporter robust z-score = 0.27; Call = inactive
DIS3L2 (DIS3 like 3'-5' exoribonuclease 2): TNF reporter robust z-score = 0.48; Call = inactive
DIS3L2 (DIS3 like 3'-5' exoribonuclease 2): TNF reporter robust z-score = 0.71; Call = inactive
DMRTA1 (DMRT like family A1): TNF reporter robust z-score = -0.8; Call = inactive
DMRTA1 (DMRT like family A1): TNF reporter robust z-score = -0.41; Call = inactive
DMRTA1 (DMRT like family A1): TNF reporter robust z-score = -0.26; Call = inactive
DMRTA1 (DMRT like family A1): TNF reporter robust z-score = 0.39; Call = inactive

Next part (7 carried over from the part before).
DIS3L2 (DIS3 like 3'-5' exoribonuclease 2): TNF reporter robust z-score = 0.27; Call = inactive
DIS3L2 (DIS3 like 3'-5' exoribonuclease 2): TNF reporter robust z-score = 0.48; Call = inactive
DIS3L2 (DIS3 like 3'-5' exoribonuclease 2): TNF reporter robust z-score = 0.71; Call = inactive
DMRTA1 (DMRT like family A1): TNF reporter robust z-score = -0.8; Call = inactive
DMRTA1 (DMRT like family A1): TNF reporter robust z-score = -0.41; Call = inactive
DMRTA1 (DMRT like family A1): TNF reporter robust z-score = -0.26; Call = inactive
DMRTA1 (DMRT like family A1): TNF reporter robust z-score = 0.39; Call = inactive
MSANTD4 (Myb/SANT DNA binding domain containing 4 with coiled-coils): TNF reporter robust z-score = 0.4; Call = inactive
MSANTD4 (Myb/SANT DNA binding domain containing 4 with coiled-coils): TNF reporter robust z-score = -1.07; Call = inactive
MSANTD4 (Myb/SANT DNA binding domain containing 4 with coiled-coils): TNF reporter robust z-score = -0.73; Call = inactive
MSANTD4 (Myb/SANT DNA binding domain containing 4 with coiled-coils): TNF reporter robust z-score = 1.43; Call = inactive
RAB11FIP3 (RAB11 family interacting protein 3): TNF reporter robust z-score = 0.62; Call = inactive
RAB11FIP3 (RAB11 family interacting protein 3): TNF reporter robust z-score = 0.4; Call = inactive
RAB11FIP3 (RAB11 family interacting protein 3): TNF reporter robust z-score = -1.28; Call = inactive
RAB11FIP3 (RAB11 family interacting protein 3): TNF reporter robust z-score = -1.46; Call = inactive
ABI2 (abl interactor 2): TNF reporter robust z-score = 1.17; Call = inactive
ABI2 (abl interactor 2): TNF reporter robust z-score = 0.81; Call = inactive
ABI2 (abl interactor 2): TNF reporter robust z-score = 0.98; Call = inactive
ABI2 (abl interactor 2): TNF reporter robust z-score = 1.01; Call = inactive
ATAD2 (ATPase family AAA domain containing 2): TNF reporter robust z-score = -1.24; Call = inactive
ATAD2 (ATPase family AAA domain containing 2): TNF reporter robust z-score = -1.15; Call = inactive
ATAD2 (ATPase family AAA domain containing 2): TNF reporter robust z-score = -0.98; Call = inactive
ATAD2 (ATPase family AAA domain containing 2): TNF reporter robust z-score = -0.71; Call = inactive
CD209 (CD209 molecule): TNF reporter robust z-score = 2.93; Call = active
CD209 (CD209 molecule): TNF reporter robust z-score = 4.18; Call = active
CD209 (CD209 molecule): TNF reporter robust z-score = 3.06; Call = active
CD209 (CD209 molecule): TNF reporter robust z-score = 3.56; Call = active
